Source: article PMC4771738
These are yes or no findings as the source states them, for the method shown. In cells and extracts the contact can be indirect. Some results given as binding are weak or reduced against the parent protein; the word gives no strength. For some assays here: Where a sequence is shown, tags or fusion partners need not be part of it.

Protein sequences, listed by entry. Tags and fused reporters are not part of them.
UniProt O00399: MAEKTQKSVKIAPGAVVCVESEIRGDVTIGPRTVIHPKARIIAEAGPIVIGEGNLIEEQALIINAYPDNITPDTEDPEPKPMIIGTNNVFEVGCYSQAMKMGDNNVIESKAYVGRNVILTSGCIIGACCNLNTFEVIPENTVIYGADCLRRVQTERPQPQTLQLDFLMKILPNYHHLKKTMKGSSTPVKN
UniProt P20340: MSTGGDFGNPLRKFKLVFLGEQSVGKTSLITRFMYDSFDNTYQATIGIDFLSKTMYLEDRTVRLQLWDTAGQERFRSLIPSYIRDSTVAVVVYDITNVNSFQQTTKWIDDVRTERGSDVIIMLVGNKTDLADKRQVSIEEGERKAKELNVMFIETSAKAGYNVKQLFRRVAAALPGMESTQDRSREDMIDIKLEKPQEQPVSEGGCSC

Assays:
[1] = molecular target: T1, GFP-syntaxin 8 (UniProt Q9UNK0); assay: co-IP; HEK 293 cells co-transfected with myc-tagged Rab and GFP fusion; lysis in 50 mM Tris pH 7.4, 150 mM NaCl, 1% Triton X-100; GFP fusions precipitated on GBP agarose beads, room temperature 1.5 h; blot for myc and GFP; co-IP efficiency = co-IP / input
T1 sequence: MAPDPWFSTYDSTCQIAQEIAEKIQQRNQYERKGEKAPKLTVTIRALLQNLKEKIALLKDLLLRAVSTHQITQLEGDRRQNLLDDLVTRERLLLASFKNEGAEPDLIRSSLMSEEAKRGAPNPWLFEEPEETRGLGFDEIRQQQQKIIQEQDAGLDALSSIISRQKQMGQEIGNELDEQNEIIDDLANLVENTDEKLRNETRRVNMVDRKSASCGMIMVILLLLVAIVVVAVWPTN

[2] = molecular target: GFP-dynactin 6 (UniProt O00399); assay: as above

## myc-tagged wild type Rab6a (from UniProt P20340 1-208)
[1]
  binding: binds
[2]
  binding: binds
